These are yes or no findings as the source states them, for the method shown. Where a sequence is shown, tags or fusion partners need not be part of it.
Target: T1, BD-AtBI-1 (full-length Arabidopsis Bax inhibitor-1 in pGBKT7) (Arabidopsis (Arabidopsis thaliana)) (UniProt Q9LD45)
T1 sequence: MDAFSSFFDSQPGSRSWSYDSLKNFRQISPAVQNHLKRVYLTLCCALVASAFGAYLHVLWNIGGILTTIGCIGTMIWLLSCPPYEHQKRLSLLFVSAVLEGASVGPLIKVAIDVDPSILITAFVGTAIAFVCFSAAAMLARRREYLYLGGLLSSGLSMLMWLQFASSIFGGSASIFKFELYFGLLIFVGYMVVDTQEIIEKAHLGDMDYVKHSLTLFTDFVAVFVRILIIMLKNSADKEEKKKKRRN
Experiment: two-hybrid; pairs of BD (pGBKT7) and AD (pGADT7) fusions coexpressed in AH109 yeast cells; selected on SD/-Trp-Leu-His-Ade or SD/-Trp-Leu-His-Ade/X-alpha-gal medium for 5 days

**Q.** “AD-ROF1-TPR (TPR region of ROF1 in pGADT7) (Arabidopsis (Arabidopsis thaliana)) (domain or fragment)” was tested. Which binding did it give?
**A.** no binding
